Measurements as given in the supplement of paper PMC12819154, “High-throughput peptide-centric local stability assay extends protein–ligand identification to membrane proteins, tissues and bacteria” (Nature Structural & Molecular Biology, 2025).
This is one part of the list. Small differences around the control level are noise.

Sequences of proteins named here, by UniProt entry; tags and fusion partners are left off. A change or cut given only in a name is not applied to a line headed by its entry.
UniProt O75879: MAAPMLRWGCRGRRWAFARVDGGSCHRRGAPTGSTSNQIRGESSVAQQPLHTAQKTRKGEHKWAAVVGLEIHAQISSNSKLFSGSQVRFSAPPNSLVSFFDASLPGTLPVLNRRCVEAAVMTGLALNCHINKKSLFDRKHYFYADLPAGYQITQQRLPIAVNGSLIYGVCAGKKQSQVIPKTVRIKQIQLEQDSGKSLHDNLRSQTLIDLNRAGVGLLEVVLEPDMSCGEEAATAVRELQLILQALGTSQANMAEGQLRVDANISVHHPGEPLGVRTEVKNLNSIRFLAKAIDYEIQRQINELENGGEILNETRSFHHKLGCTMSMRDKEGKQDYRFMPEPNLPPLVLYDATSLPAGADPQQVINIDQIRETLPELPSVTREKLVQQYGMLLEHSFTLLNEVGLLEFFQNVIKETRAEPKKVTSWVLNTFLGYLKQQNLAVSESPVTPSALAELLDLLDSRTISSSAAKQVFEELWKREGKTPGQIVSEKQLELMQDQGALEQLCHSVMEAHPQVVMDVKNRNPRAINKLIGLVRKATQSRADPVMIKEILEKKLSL
UniProt O76075: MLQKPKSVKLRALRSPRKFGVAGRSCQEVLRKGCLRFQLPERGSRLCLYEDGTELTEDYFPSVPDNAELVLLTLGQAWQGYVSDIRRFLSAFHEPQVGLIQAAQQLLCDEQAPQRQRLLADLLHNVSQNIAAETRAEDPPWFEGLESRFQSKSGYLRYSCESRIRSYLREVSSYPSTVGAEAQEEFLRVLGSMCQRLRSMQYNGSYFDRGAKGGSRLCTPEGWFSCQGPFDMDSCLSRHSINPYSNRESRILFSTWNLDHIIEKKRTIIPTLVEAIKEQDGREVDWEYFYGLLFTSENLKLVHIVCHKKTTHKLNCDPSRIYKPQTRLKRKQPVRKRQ
UniProt O75494: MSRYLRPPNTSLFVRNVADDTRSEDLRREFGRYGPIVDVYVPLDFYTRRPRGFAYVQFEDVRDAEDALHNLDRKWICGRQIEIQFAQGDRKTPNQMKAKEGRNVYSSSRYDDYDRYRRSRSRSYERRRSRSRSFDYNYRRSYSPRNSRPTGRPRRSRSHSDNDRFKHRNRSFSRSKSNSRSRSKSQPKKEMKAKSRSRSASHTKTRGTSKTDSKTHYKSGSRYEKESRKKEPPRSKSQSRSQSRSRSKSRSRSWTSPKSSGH
UniProt O75496: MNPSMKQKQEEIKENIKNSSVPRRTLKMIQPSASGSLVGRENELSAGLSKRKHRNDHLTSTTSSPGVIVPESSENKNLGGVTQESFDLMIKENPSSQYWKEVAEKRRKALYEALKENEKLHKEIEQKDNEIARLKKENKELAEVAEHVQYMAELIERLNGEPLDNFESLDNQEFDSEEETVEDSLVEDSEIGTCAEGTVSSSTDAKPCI
UniProt O94887: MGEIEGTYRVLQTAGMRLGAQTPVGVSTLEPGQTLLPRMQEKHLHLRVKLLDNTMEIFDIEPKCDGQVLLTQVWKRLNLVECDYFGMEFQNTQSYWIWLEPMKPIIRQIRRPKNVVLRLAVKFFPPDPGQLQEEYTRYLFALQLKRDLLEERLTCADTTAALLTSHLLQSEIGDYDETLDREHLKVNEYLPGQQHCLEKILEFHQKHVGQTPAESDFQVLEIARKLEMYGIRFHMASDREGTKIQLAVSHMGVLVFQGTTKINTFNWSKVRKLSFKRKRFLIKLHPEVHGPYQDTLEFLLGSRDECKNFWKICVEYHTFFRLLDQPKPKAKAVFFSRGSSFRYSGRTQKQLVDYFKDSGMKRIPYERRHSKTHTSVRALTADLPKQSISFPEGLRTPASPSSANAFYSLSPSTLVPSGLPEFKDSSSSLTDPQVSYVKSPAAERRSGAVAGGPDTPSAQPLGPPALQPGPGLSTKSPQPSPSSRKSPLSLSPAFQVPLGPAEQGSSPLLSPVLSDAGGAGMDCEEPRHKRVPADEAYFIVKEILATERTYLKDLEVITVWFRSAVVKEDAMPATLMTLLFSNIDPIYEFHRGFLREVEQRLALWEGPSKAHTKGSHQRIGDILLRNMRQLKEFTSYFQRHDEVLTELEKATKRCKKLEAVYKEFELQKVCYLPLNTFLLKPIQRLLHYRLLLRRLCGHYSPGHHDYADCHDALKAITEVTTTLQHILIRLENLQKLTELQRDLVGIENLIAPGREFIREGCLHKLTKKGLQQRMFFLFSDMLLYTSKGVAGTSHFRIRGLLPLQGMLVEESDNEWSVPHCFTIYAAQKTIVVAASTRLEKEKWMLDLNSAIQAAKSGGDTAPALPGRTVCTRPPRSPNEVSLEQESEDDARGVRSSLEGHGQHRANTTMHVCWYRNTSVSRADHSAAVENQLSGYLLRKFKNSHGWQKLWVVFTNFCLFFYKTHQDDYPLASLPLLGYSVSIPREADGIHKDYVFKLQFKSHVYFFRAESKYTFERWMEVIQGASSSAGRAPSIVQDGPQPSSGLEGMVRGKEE
UniProt O96013: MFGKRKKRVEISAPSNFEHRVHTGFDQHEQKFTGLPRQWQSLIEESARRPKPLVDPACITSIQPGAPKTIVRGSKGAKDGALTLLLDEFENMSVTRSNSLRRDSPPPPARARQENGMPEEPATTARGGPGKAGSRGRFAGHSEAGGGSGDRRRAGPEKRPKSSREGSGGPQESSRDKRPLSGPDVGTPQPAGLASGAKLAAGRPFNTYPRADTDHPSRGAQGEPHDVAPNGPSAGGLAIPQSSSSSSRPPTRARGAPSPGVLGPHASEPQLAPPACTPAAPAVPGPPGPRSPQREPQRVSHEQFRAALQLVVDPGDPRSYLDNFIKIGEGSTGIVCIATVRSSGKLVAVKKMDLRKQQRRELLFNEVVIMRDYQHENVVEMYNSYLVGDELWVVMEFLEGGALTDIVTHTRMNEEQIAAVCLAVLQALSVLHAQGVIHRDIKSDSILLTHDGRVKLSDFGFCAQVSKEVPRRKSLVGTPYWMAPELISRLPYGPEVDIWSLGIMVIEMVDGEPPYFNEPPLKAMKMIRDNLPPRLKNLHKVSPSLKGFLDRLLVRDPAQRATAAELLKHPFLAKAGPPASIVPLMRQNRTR
UniProt O95295: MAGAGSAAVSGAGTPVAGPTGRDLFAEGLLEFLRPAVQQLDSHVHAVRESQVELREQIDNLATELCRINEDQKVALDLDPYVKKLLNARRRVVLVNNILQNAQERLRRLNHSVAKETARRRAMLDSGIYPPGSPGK
UniProt O94916: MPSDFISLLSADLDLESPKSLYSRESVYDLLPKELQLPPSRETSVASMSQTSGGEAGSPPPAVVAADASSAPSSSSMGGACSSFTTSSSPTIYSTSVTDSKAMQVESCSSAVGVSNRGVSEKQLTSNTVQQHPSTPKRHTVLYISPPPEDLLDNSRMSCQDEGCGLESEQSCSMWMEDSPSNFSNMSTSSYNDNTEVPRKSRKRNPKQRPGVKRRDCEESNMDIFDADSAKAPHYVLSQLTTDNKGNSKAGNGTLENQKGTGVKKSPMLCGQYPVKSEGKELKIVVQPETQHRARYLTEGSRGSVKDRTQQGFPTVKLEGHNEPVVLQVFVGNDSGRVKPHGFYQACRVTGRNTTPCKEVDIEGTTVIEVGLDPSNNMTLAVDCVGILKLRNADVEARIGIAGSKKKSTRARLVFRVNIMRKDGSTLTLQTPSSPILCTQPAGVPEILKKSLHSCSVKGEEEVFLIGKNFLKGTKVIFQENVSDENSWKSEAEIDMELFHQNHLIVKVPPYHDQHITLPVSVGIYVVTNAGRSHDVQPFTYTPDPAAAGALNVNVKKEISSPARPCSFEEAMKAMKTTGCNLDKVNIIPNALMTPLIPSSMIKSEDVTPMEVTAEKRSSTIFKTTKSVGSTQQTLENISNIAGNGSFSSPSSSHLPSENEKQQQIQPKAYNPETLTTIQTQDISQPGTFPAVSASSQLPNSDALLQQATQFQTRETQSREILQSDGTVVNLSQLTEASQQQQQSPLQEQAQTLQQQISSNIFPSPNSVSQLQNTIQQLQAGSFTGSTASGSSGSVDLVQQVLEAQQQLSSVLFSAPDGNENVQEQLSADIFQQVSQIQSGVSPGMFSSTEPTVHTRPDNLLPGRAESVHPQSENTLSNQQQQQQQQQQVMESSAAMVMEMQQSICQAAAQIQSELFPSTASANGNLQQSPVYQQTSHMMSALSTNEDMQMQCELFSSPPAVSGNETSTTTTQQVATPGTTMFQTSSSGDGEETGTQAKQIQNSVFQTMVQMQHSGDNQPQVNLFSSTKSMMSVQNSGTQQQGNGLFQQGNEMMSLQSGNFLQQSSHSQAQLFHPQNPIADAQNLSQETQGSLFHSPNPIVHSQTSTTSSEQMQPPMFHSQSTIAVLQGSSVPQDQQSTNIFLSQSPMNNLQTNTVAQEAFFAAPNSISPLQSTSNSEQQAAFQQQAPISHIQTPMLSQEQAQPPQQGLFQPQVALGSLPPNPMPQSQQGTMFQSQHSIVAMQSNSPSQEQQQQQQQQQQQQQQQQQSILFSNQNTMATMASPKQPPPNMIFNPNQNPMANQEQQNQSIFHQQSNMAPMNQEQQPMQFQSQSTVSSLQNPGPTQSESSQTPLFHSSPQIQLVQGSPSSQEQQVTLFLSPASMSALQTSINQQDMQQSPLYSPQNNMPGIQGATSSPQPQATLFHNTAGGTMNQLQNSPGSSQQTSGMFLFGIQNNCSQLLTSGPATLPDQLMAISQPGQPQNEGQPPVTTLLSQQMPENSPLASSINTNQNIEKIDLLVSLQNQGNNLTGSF
UniProt O95630, whole entry: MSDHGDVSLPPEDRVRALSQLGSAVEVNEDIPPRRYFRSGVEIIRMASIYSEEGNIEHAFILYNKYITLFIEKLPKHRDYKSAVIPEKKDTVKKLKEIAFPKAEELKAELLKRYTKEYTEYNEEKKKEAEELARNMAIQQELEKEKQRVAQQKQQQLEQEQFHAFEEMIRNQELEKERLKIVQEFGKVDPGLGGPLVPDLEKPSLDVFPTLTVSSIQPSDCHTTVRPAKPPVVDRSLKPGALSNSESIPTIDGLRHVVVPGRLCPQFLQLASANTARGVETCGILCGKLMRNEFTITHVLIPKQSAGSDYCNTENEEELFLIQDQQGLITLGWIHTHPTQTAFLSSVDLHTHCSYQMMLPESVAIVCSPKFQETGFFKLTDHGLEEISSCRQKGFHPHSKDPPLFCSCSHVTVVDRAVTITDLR
UniProt O94766: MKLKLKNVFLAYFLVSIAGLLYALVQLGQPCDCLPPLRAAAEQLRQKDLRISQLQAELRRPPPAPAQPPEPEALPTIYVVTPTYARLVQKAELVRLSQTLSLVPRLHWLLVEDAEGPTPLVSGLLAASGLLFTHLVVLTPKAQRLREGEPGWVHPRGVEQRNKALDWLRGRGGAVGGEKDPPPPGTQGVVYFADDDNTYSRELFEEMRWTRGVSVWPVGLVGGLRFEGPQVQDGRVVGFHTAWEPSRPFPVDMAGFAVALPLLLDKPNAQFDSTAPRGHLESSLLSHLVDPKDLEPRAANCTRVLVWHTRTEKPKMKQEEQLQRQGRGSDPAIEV

compound: Cc1nc(Nc2ncc(C(=O)Nc3c(C)cccc3Cl)s2)cc(N2CCN(CCO)CC2)n1 [dasatinib]; test: log2 fold change of tryptic peptide abundance, ligand vs vehicle (limited proteolysis) (log2 ratio); higher = more trypsin-susceptible (destabilized); settings: ligand concentration: 5 uM; sample: K562 cleared lysate

Target | log2 fold change
UniProt O75879 (peptide sequence: VDANISVHHPGEPLGVR, peptide start residue: 260) | 0.152
DFFB (peptide sequence: HSINPYSNR, peptide start residue: 239) (UniProt O76075) | -0.0498
UniProt O75494 (peptide sequence: SFDYNYR, peptide start residue: 133) | -0.0446
GMNN (peptide sequence: MIQPSASGSLVGR, peptide start residue: 28) (UniProt O75496) | 0.131
FARP2 (peptide sequence: QLVDYFKDSGMK, peptide start residue: 350) (UniProt O94887) | 0.426
PAK4 (peptide sequence: DIKSDSILLTHDGR, peptide start residue: 440) (UniProt O96013) | -0.381
SNAPIN (peptide sequence: RLNHSVAK, peptide start residue: 108) (UniProt O95295) | 0.48
NFAT5 (peptide sequence: APHYVLSQLTTDNKGNSK, peptide start residue: 232) (UniProt O94916) | 0.303
STAMBP (peptide sequence: EYTEYNEEK, peptide start residue: 117) (UniProt O95630) | 0.075
B3GAT3 (peptide sequence: GHLESSLLSHLVDPK, peptide start residue: 278) (UniProt O94766) | 0.0927
